{
  "source": "paper PMC2442905",
  "about": "(British Journal of Pharmacology, 2008)",
  "tested_on": "anaesthetized guinea-pigs (QTc interval of the ECG)",
  "assay": "Anaesthetized guinea-pig QT",
  "assay_type": "in vivo",
  "settings": "highest dose level, i.v. infusion over 10 min",
  "data": [
    {"compound": "CCCCc1oc2ccccc2c1C(=O)c1cc(I)c(OCCN(CC)CC)c(I)c1", "note": "[Amiodarone]", "values": [
      {"measurement": "mean baseline-corrected QTc", "value": 6.9, "unit": "%"}
    ]}
  ]
}
